Record: PubChem BioAssay AID1259308 (NCATS, 2017)

- Test: 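Candidate targets for better recombinant protein yield in mammalian cells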 (primary screen)
- System: human HEK293 embryonic kidney cells stably expressing firefly luciferase (HEK-CMV-Luc2-Hygro)
- Reagents: single siRNA against human genes, 0.8 pmol siRNA per well
- Duration: 72 h
- Detection: 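Reporter luminescence and viable-cell signal on separate replicate plates, given as percent of non-targeting control and median/MAD z-scores, plus per-cell luciferase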
- Reading the numbers: total luciferase, z-score: higher = more reporter protein produced
- Call rule: 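An siRNA counts as active if its total luciferase robust z-score exceeds 3; genes with two or more such siRNAs out of three were retested with fresh siRNAs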
- Meaning of the calls: active = raised luciferase; inactive = no rise
The deposit covers about 59,000 reagents; this is a part drawn at random. Over the whole deposit, about 1,510 (2.6%) are marked active. 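Calls use total luciferase alone and ignore viability, so some active siRNAs may act by altering cell number.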 Reagents against one gene are numbered here. Further read-outs or replicates are left out here.

total luciferase, z-score, by target gene and reagent
PGAP6 (post-GPI attachment to proteins 6): #1 -1.15 inactive; #2 0.265 inactive; #3 -0.483 inactive
PCSK4 (proprotein convertase subtilisin/kexin type 4): #1 2.02 inactive; #2 -0.857 inactive; #3 -0.915 inactive
TRPM8: #1 1.43 inactive; #2 -1.14 inactive; #3 -0.362 inactive
FAM47A (family with sequence similarity 47 member A): #1 -0.956 inactive; #2 -1.88 inactive; #3 0.595 inactive
IARS2 (isoleucyl-tRNA synthetase 2, mitochondrial): #1 0.364 inactive; #2 -1.15 inactive; #3 -1.03 inactive
PRKD2 (protein kinase D2): #1 -0.639 inactive; #2 0.0622 inactive; #3 0.937 inactive
PSCA (prostate stem cell antigen): #1 1.72 inactive; #2 0.24 inactive; #3 0.473 inactive
INSL5 (insulin like 5): #1 1.07 inactive; #2 1.89 inactive; #3 -1.17 inactive
SIPA1L3 (signal induced proliferation associated 1 like 3): #1 -0.257 inactive; #2 -2.73 inactive; #3 -0.412 inactive
RNF24 (ring finger protein 24): #1 -0.714 inactive; #2 -0.675 inactive; #3 -0.78 inactive
ATN1 (atrophin 1): #1 0.904 inactive; #2 2.05 inactive; #3 -0.446 inactive
TAS2R1 (taste 2 receptor member 1): #1 0.996 inactive; #2 -1.2 inactive; #3 -0.358 inactive
LOC390877 (adenylate kinase isoenzyme 1-like): #1 0.236 inactive; #2 0.606 inactive; #3 0.572 inactive
SLC12A3: #1 0.289 inactive; #2 0.0172 inactive; #3 -0.239 inactive
SPG21 (SPG21 abhydrolase domain containing, maspardin): #1 1.57 inactive; #2 0.189 inactive; #3 -0.639 inactive
TNFRSF1B (TNF receptor superfamily member 1B): #1 -0.381 inactive; #2 0.549 inactive; #3 0.93 inactive
TTLL11 (tubulin tyrosine ligase like 11): #1 -1.46 inactive; #2 -1.02 inactive; #3 -0.312 inactive
PPP1R1B (protein phosphatase 1 regulatory inhibitor subunit 1B): #1 0.331 inactive; #2 -0.519 inactive; #3 -0.993 inactive
TMEM258 (transmembrane protein 258): #1 -0.935 inactive; #2 -0.43 inactive; #3 0.0602 inactive
